Results published in US20220153822A1.
These are yes or no findings as the source states them, for the method shown. Some results given as binding are weak or reduced against the parent protein; the word gives no strength.

Amino acid sequences for entries named in this document (tags omitted).
UniProt Q8CGN5: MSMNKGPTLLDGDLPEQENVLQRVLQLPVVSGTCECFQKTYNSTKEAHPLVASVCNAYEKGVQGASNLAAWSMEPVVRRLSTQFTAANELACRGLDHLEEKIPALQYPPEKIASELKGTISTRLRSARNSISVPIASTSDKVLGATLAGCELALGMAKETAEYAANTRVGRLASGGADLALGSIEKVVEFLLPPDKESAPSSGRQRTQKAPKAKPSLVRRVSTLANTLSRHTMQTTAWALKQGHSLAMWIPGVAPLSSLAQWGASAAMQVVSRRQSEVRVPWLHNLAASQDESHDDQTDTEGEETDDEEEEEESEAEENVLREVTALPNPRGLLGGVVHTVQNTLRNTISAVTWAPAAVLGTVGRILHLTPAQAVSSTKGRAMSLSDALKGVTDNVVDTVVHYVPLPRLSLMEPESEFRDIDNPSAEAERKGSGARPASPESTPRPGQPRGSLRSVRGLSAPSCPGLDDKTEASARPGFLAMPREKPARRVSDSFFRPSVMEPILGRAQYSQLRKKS

How the values were obtained:
[1] = target: perilipin-1 and/or fragments thereof in and on mouse adipocytes (primary mouse adipocytes, differentiated 3T3-L1 cells) (mouse) (UniProt Q8CGN5); assay: immunogold scanning electron microscopy on fixed differentiated adipocytes
[2] = target: perilipin-1 and/or fragments thereof in and on mouse adipocytes (primary mouse adipocytes, differentiated 3T3-L1 cells) (mouse) (UniProt Q8CGN5); assay: flow cytometry on freshly isolated mouse adipocytes (FIGS. 10 and 11)
[3] = target: perilipin-1 and/or fragments thereof in and on mouse adipocytes (primary mouse adipocytes, differentiated 3T3-L1 cells) (mouse) (UniProt Q8CGN5); assay: flow cytometry on freshly isolated mouse adipocytes, 1 ug/ml

| binding [1] | binding [2] | binding [3] | Binder |
| --- | --- | --- | --- |
| binds |  |  | Antibody No. 11 (antibody, V domains shown) VH: QVQLVQSGAEVKKPGASVKVSCKASGYTFTSYGISWVRQAPGQGLEWMGWISAYNGNTNYAQKLQGRVTMTTDTSTSTAYMELRSLRSDDTAVYYCASLYCSGGSCYSALDPWGQGTLVTVSS VL: QSVLTQPPSVSGAPGQRVTISCTGSSSNIGAGYDVHWYQQLPGTAPKLLIYGNSNRPSGVPDRFSGSKSGTSASLAITGLQAEDEADYYCQSYDSSLRYVVFGGGTKVTVL |
|  | binds | binds | Antibody No. 21 (antibody, V domains shown) VH: QVQLVESGGGLVQPGRSLRLSCAASGFTFDDYAMHWVRQAPGKGLEWVSGISWNSGSIGYADSVKGRFTISRDNAKNSLYLQMNSLRAEDTALYYCAKEGEYSYGGGEFDPWGQGTLVTVSS VL: QSALTQPASVSGSPGQSITISCTGTSSDVGGYNYVSWYQQHPGKAPKLMIYDVSNRPSGVSNRFSGSKSGNTASLTISGLQAEDEADYYCSSYTSSSTWVFGGGTKLTVL |
|  | binds | binds | Antibody No. 18 (antibody, V domains shown) VH: EVQLLESGGGLVQPGRSLRLACVASGFTFDDYGMHWVRQAPGKGLEWVAVISYDGSNKYYADSVKGRFTISRDNSKNTLYLQMNSLRAEDTAVYYCAKAYGEGGFDPWGQGTLVTVSS VL: QSALTQPASVSGSPGQSITISCTGTSSDVGGYNYVSWYQQHPGKAPKLMIYEVSNRPSGVSNRFSGSKSGNTASLTISGLQAEDEADYYCSSYTSSSTTWVFGGGTKVTVL |
